No constants are given. Whether binding was seen depends on the method and setting. Binding seen in cells or lysates may run through a third protein. Some entries that bind do so weakly or less than the wild type.
Target: cyclin A2-mCherry (human) (UniProt P20248)
Assay: FRET or BRET; FRET measured by FLIM (EGFP lifetime, two-photon excitation) in live mitotic MCF-7 cells, synchronised and microinjected with the vectors

By UniProt entry, the sequences of proteins in these tests, tags left out. Where a name states a change or a piece, a line headed by the entry shows the natural chain unless it says otherwise. Chains listed by the source or under a name are the forms on record and can include a tag or linker.
UniProt P20248: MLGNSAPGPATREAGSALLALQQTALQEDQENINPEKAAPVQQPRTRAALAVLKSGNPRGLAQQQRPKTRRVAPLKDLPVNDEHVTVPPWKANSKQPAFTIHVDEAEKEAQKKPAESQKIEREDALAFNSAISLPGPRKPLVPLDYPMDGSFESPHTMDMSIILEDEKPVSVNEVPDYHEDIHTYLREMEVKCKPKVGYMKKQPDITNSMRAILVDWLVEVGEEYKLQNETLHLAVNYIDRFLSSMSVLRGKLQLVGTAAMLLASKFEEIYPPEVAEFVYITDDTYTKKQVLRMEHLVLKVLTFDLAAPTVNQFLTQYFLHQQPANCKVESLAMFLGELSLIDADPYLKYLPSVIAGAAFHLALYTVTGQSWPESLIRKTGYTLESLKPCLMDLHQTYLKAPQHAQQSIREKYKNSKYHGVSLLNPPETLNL
UniProt P61586: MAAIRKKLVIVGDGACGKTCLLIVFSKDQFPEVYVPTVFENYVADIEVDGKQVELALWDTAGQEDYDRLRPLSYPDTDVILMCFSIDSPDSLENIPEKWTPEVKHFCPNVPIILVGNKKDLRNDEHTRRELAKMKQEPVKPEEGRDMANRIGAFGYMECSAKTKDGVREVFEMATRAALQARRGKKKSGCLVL
RhoA-V14-EGFP (constitutively active mutant form of RhoA) (P61586, form named): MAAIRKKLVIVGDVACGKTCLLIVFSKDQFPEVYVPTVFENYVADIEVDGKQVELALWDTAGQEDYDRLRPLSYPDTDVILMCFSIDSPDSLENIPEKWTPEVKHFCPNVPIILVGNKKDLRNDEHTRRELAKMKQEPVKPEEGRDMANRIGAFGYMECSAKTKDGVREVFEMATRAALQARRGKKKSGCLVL

**Q.** With “RhoA-V14-EGFP (constitutively active mutant form of RhoA) (from UniProt P61586 1-193)” as the substance, how does the binding read?
**A.** binds

Reference: paper PMC4899731
